Assay results reported in publication PMC4287497, “Phosphorylation of Elp1 by Hrr25 Is Required for Elongator-Dependent tRNA Modification in Yeast” (PLoS Genetics, 2015).
Substitutions are numbered along the chain they refer to. Results are given in words; binding and its absence hold for the method and conditions named. In cells and extracts the contact can be indirect. Some entries that bind do so weakly or less than the wild type.

Assays:
[1] = molecular target: T1, Elp1-S1198A S1202A T1204A S1205A T1206A-6HA (S. cerevisiae) (UniProt Q06706); experiment: co-IP; Elp2-myc immunoprecipitated from extracts of elp1Δ yeast strains carrying plasmid-borne ELP1-6HA alleles (antibody coupled to Dynabeads, B60 buffer); Western blot with anti-myc, anti-HA and anti-Hrr25
T1 sequence: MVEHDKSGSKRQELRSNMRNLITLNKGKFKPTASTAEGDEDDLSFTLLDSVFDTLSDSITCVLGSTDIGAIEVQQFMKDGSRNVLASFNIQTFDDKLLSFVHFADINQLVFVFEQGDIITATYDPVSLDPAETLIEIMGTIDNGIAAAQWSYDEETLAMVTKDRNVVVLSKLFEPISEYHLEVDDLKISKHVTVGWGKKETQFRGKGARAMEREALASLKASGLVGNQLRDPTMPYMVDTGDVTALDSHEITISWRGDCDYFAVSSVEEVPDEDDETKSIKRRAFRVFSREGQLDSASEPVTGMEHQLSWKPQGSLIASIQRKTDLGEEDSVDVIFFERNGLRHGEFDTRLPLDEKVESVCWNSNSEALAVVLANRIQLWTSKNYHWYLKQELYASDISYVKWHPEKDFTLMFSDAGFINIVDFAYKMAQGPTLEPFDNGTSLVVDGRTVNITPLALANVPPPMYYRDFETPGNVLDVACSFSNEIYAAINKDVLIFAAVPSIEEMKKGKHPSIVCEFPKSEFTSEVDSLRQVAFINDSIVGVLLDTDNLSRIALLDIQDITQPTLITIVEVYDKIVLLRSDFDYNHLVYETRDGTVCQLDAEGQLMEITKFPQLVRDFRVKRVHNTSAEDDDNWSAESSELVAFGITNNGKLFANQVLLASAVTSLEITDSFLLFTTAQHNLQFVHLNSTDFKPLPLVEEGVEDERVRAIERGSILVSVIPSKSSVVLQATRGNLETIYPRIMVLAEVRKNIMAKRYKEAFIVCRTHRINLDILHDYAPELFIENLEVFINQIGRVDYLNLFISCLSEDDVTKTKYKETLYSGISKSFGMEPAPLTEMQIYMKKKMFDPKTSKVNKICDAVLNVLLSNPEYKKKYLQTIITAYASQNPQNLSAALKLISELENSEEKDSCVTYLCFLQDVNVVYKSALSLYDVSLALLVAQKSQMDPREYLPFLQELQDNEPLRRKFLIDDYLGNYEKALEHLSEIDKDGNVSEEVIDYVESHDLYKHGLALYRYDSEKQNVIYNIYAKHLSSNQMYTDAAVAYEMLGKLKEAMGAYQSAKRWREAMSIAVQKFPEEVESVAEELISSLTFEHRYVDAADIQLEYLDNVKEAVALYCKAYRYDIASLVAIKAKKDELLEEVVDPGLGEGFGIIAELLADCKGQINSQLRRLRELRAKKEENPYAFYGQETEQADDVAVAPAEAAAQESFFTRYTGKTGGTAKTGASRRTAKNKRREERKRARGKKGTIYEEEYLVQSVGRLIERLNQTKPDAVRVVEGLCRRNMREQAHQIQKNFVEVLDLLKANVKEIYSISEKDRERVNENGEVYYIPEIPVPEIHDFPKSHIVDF

[2] = molecular target: T2, Elp1-S1198E S1202E-6HA (S. cerevisiae) (UniProt Q06706); experiment: as above
T2 sequence: T1 sequence with A1198E, A1202E, A1204T, A1205S, A1206T

B1: Hrr25 protein kinase (casein kinase I), endogenous (enzyme, UniProt P29295 1-494)
chain: MDLRVGRKFRIGRKIGSGSFGDIYHGTNLISGEEVAIKLESIRSRHPQLDYESRVYRYLSGGVGIPFIRWFGREGEYNAMVIDLLGPSLEDLFNYCHRRFSFKTVIMLALQMFCRIQYIHGRSFIHRDIKPDNFLMGVGRRGSTVHVIDFGLSKKYRDFNTHRHIPYRENKSLTGTARYASVNTHLGIEQSRRDDLESLGYVLIYFCKGSLPWQGLKATTKKQKYDRIMEKKLNVSVETLCSGLPLEFQEYMAYCKNLKFDEKPDYLFLARLFKDLSIKLEYHNDHLFDWTMLRYTKAMVEKQRDLLIEKGDLNANSNAASASNSTDNKSETFNKIKLLAMKKFPTHFHYYKNEDKHNPSPEEIKQQTILNNNAASSLPEELLNALDKGMENLRQQQPQQQVQSSQPQPQPQQLQQQPNGQRPNYYPEPLLQQQQRDSQEQQQQVPMATTRATQYPPQINSNNFNTNQASVPPQMRSNPQQPPQDKPAGQSIWL
Which results are given for B1?
binding [1]: binds; binding [2]: binds
